According to publication PMC10351740, “ZCCHC3 is a stress granule zinc knuckle protein that strongly suppresses LINE-1 retrotransposition” (PLOS Genetics, 2023):

What was measured:
[1] = molecular target: T1, ZCCHC3-FL (Zinc Finger CCHC-Type Containing 3 with C-terminal FLAG epitope tag) (human) (UniProt Q9NUD5); test: co-IP; as a1, lysates treated with 25 μg/ml DNase-free RNase and 25 μg/ml RNaseA in the absence of RNase inhibitors
T1 sequence: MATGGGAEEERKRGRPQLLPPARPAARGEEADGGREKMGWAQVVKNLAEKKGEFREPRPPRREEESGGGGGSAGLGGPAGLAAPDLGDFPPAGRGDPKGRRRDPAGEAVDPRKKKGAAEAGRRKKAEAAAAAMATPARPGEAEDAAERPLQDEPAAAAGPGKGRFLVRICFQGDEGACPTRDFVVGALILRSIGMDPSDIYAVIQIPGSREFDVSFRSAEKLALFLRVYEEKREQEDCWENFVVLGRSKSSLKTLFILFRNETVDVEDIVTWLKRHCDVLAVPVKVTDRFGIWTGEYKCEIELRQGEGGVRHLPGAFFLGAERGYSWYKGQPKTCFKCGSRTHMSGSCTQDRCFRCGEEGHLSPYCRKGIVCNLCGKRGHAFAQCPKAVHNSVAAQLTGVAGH

[2] = molecular target: T1, ZCCHC3-FL (Zinc Finger CCHC-Type Containing 3 with C-terminal FLAG epitope tag) (human); test: co-IP; whole cell lysates of transfected HEK 293T cells; FLAG-tagged bait on α-FLAG-M2 magnetic beads, eluted with 3XFLAG peptide; Western blot; no RNase

binding [1]: binds weakly
binding [2]: binds weakly
Substance: V5-TEV-DIS3L (isoform 2) (from UniProt Q8TF46-4)

These are yes or no findings as the source states them, for the method shown. Binding seen in cells or lysates may run through a third protein. A result given as binding can be weak or reduced; the word gives no strength. Sequences can lack the tags named with a protein.
